Experimental findings from publication PMC11257983 (2024) are described below.

The target of one test is T1, Pyo-RAF (Drosophila) (UniProt P11346).
T1 sequence: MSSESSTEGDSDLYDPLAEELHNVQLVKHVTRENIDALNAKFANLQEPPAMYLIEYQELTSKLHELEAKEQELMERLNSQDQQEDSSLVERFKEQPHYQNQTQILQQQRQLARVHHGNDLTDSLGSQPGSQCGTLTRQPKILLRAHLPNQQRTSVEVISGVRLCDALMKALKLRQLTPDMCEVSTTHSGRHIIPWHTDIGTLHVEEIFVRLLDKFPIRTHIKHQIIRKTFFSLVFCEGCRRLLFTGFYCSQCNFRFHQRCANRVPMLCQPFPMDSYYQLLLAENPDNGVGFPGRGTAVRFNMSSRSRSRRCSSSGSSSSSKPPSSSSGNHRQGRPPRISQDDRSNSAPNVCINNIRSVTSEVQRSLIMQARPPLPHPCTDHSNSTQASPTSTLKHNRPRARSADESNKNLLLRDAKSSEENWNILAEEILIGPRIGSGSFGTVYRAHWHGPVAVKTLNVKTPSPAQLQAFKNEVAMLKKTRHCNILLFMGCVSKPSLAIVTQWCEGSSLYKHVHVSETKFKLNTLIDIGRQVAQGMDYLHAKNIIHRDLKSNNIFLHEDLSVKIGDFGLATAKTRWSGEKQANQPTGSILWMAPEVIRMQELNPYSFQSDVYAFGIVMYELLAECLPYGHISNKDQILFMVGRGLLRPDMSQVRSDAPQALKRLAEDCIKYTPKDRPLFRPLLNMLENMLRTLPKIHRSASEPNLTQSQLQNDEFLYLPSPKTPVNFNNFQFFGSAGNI
The test is described as follows: co-IP; anti-Pyo immunoprecipitation of Pyo-RAF from S2 total lysates, protein A/G agarose, overnight at 4 °C; KSR blotted; without or with co-expressed MEK and CNK–HYP.

Test [1] addresses T2, Flag-CNK^2–549 (Drosophila) (UniProt Q7KNQ9).
T2 sequence: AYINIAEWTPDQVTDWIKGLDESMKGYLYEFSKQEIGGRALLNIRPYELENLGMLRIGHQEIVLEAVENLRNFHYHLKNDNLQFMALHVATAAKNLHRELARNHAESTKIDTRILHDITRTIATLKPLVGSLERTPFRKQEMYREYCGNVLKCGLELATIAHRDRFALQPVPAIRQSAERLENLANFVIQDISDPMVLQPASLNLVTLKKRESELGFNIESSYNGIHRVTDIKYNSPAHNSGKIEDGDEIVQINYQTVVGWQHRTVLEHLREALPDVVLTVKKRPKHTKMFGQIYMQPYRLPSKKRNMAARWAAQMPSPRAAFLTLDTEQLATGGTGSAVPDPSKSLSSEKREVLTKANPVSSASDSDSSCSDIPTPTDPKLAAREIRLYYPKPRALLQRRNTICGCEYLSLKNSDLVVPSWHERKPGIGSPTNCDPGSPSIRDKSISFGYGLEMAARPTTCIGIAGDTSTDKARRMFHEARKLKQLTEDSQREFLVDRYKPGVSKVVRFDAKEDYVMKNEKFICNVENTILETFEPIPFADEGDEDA
The test is described as follows: pull-down; GST-HYP as bait, CNK^2–549 co-expressed in S2 cells with Ha-RAS^V12, Pyo-RAF, V5-KSR and Myc-MEK (RRKM); total lysates, overnight at 4 °C; immunoblot. Background: Immunoblotting shows a protein as a band on a membrane.

In test [2] the target is T3, GST-CNK^2–549 (Drosophila) (UniProt Q7KNQ9).
T3 sequence: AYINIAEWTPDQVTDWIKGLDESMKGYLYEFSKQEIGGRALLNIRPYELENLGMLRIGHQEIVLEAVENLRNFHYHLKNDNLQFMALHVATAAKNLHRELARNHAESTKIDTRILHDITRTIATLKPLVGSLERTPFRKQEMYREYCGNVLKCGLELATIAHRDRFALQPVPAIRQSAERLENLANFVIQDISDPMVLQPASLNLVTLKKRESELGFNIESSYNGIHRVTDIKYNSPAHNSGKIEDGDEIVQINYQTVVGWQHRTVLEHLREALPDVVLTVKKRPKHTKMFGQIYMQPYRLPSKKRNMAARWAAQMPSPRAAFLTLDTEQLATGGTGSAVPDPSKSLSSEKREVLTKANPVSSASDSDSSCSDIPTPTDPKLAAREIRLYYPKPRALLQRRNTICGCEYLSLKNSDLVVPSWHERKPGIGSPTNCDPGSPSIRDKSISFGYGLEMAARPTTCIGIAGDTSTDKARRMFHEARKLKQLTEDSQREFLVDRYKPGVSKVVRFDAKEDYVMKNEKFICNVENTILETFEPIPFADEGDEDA
Description: pull-down; GST-CNK fragments as bait; S2 cells co-transfected with Pyo-HYP, V5-KSR and Myc-MEK alone, in pairs or all three; total lysates in Triton lysis buffer (50 mM Tris pH 7.5, 150 mM NaCl, 0.2% Triton X-100), overnight at 4 °C; immunoblot.

For test [3], the target named is T4, GST-CNK^2–384 (Drosophila) (UniProt Q7KNQ9).
T4 sequence: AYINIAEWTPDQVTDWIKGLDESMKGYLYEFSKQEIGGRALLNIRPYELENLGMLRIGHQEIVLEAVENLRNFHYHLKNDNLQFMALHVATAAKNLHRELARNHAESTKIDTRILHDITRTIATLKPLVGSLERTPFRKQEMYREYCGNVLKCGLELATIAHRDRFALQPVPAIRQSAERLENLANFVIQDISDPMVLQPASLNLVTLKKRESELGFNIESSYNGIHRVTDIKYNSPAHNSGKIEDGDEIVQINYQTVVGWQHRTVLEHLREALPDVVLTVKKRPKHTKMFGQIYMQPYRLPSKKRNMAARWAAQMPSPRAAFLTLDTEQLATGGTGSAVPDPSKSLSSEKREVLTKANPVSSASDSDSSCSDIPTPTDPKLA
The description is as above.

Test [4] has as its target T2, Flag-CNK^2–549 (Drosophila). The test is described as follows: pull-down; GST-HYP as bait, CNK, KSR and MEK variants co-expressed in S2 cells (Fig. 2c,d; Extended Data Fig. 7e); total lysates, overnight at 4 °C; immunoblot.
Test [5] concerns the target T5, Flag-CNK^2–549 Q200A (Drosophila) (UniProt Q7KNQ9).
T5 sequence: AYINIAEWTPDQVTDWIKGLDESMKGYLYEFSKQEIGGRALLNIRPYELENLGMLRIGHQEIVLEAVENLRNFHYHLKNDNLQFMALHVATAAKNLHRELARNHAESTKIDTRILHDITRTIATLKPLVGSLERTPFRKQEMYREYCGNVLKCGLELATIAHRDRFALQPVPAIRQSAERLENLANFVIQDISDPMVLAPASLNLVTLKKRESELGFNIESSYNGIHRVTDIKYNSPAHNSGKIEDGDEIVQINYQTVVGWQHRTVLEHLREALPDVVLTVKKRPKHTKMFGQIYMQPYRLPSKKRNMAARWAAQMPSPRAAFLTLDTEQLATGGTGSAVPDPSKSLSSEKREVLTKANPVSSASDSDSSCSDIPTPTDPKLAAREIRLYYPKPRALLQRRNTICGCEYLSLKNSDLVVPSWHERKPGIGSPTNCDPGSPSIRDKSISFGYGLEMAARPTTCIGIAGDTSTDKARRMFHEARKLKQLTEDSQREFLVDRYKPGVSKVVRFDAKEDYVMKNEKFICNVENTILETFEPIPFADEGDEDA
The test is described as above.

These are yes or no findings as the source states them, for the method shown. In cells and extracts the contact can be indirect. Some binding calls cover weakened binding; strength is not graded here. Sequences can lack the tags named with a protein.

B1: V5-KSR (protein, UniProt Q24171 1-966)
chain: MSSNNNAPASAPDTGSTNANDPISGSLSVDSNLVIIQDMIDLSANHLEGLRTQCAISSTLTQQEIRCLESKLVRYFSELLLAKMRLNERIPANGLVPHTTGNELRQWLRVVGLSQGTLTACLARLTTLEQSLRLSDEEIRQLLADSPSQREEEELRRLTRAMQNLRKCMESLESGTAASNNDPEQWHWDSWDRPTHIHRGSVGNIGLGNNSTASPRTHHRQHGVKGKNSALANSTNFKSGRQSPSATEELNSTQGSQLTLTLTPSPPNSPFTPSSGLSSSLNGTPQRSRGTPPPARKHQTLLSQSHVQVDGEQLARNRLPTDPSPDSHSSTSSDIFVDPNTNASSGGSSSNVLMVPCSPGVGHVGMGHAIKHRFTKALGFMATCTLCQKQVFHRWMKCTDCKYICHKSCAPHVPPSCGLPREYVDEFRHIKEQGGYASLPHVHGAAKGSPLVKKSTLGKPLHQQHGDSSSPSSSCTSSTPSSPALFQQRERELDQAGSSSSANLLPTPSLGKHQPSQFNFPNVTVTSSGGSGGVSLISNEPVPEQFPTAPATANGGLDSLVSSSNGHMSSLIGSQTSNASTAATLTGSLVNSTTTTSTCSFFPRKLSTAGVDKRTPFTSEYTDTHKSNDSDKTVSLSGSASTDSDRTPVRVDSTEDGDSGQWRQNSISLKEWDIPYGDLLLLERIGQGRFGTVHRALWHGDVAVKLLNEDYLQDEHMLETFRSEVANFKNTRHENLVLFMGACMNPPYLAIVTSLCKGNTLYTYIHQRREKFAMNRTLLIAQQIAQGMGYLHAREIIHKDLRTKNIFIENGKVIITDFGLFSSTKLLYCDMGLGVPHNWLCYLAPELIRALQPEKPRGECLEFTPYSDVYSFGTVWYELICGEFTFKDQPAESIIWQVGRGMKQSLANLQSGRDVKDLLMLCWTYEKEHRPQFARLLSLLEHLPKKRLARSPSHPVNLSRSAESVF
Take B1: the binding entry with Pyo-RAF (Drosophila) was “binds weakly”; in test [1] it was “binds”; in test [2], “binds”; in test [3] it was “binds”; in test [4] it was “binds”; in test [5], “binds”.
